# Assay results from PubChem BioAssay AID540276 (National Center for Advancing Translational Sciences (NCATS), 2011).
# Values joined by “and” are separate entries in the source; they are usually repeats but may differ in a detail not shown here. Identical values can stand only once. Out of some 300,000 compounds screened, about 5,400 (1.8%) were called active. Inconclusive means that the source gave no clear call. Such entries were picked first, then a sample of the others. Calls come from the whole dose curve; tested in HEK293 cells. Where the call is inconclusive, the potency comes from a doubtful curve fit.
# Experiment: qHTS for inhibitors of binding or entry into cells for Marburg Virus
# Settings: Marburg virus pseudotyped entry inhibition, cell reporter; activity change, negative = inhibition: at 37.8 µM (top of the series) unless noted
# % is set by controls: 0 for no effect and ±100 for the full control effect; potency is the fitted concentration of half-maximal effect.
Compound,"activity change, negative = inhibition",Potency
Cc1ccccc1S(=O)(=O)NC(=NCc1ccc(F)cc1)c1ccccc1,inactive: -17.9%,
O=C(COc1ccccc1Cl)NCCNC(=O)c1ccco1,,"inconclusive: 11.2 µM [activator, single point]"
Cc1[nH]nc(Nc2ccc(O)cc2)c1[N+](=O)[O-],,"inconclusive: 1.12 µM [activator, full curve, poor fit]"
O=C(O)C1C2CCC(C2)C1C(=O)N1CCCC1 (centres undefined),inactive: 0.405% [at 46.1 µM],
CC(OC(=O)c1n[nH]c2ccccc12)C(=O)Nc1ccccc1[N+](=O)[O-] (centres undefined),,"inconclusive: 20 µM [activator, single point]"
CCOC(=O)c1ccc(NC(=O)NC2CC3CCC(C2)N3C(=S)NC)cc1 (centres undefined),,"inconclusive: 6.31 µM [inhibitor, single point]"
CSc1ccccc1OCc1cc(C(=O)N(C)Cc2cc(C)[nH]n2)no1,inactive: 18.2% [at 46.1 µM],
COc1cc(NC(=S)NC2CC(C)(C)NC(C)(C)C2)cc(OC)c1,inactive: 5.98% [at 46.1 µM],
CCOC(=O)C1=C(C)N=c2s/c(=C/c3cccc([N+](=O)[O-])c3O)c(=O)n2C1c1ccc(OC)cc1OC (centres undefined),,"inconclusive: 35.5 µM [inhibitor, single point]"
CC(CC(=O)NNC(=O)c1cccc(Cl)c1)c1ccccc1 (centres undefined),inactive: -11.1% [at 46.1 µM],
CN(Cc1ccccc1)C(=O)C1CCN(S(=O)(=O)Cc2ccccc2)CC1,inactive: 17.5% [at 46.1 µM],
Cc1cc(C)cc(-n2c(O)c(C=NC3CCS(=O)(=O)C3)c3ccccc3c2=O)c1 (centres undefined),,"inconclusive: 4.11 µM [inhibitor, single point]"
CC(C)(C)n1nnnc1C(c1ccc(C(F)(F)F)cc1)N(Cc1ccc(F)cc1)Cc1ccco1 (centres undefined),,"inconclusive: 22.4 µM [inhibitor, single point]"
CCCn1c(SC(C(=O)Nc2cccc(OC)c2)c2ccccc2)nc2ccccc2c1=O (centres undefined),,"inconclusive: 0.562 µM [activator, partial curve, poor fit]"
Cc1csc(NC(=O)Cc2ccccc2Cl)n1,,"inconclusive: 6.31 µM [activator, single point]"
Cc1ccc(-n2c(O)c(C=Nc3ccccc3-c3n[nH]c(=S)[nH]c3=O)c3ccccc3c2=O)c(C)c1,,"inconclusive: 31.6 µM [inhibitor, partial curve, poor fit]"
COc1ccc(Br)cc1/C=N/N1CCN(Cc2ccccc2Cl)CC1,inactive: -12.7%,
Cc1[nH]c2ccc(O)cc2c1CCN,,"inconclusive: 2.31 µM [inhibitor, single point] and inconclusive: 251 nM [activator, partial curve]"
O=C(NC(=S)Nc1ccccc1[N+](=O)[O-])c1ccccc1,,"inconclusive: 12.6 µM [activator, single point]"
Clc1ccc(-n2c(SC/C=C/c3ccccc3)nnc2-c2cccnc2)cc1,,"inconclusive: 29.1 µM [inhibitor, single point]"
COCc1nnc(NC(=O)c2ccc(Cl)cc2[N+](=O)[O-])s1,inactive: -3.29%,
O=C(Cc1nnc(NC(=O)c2ccccc2)s1)N/N=C/c1cccc(O)c1,inactive: 23.4%,
CC(=O)/C(C#N)=C1\NC(=O)C(Cc2ccc(F)cc2)S1 (centres undefined),,"inconclusive: 22.4 µM [inhibitor, single point]"

Compound,"activity change, negative = inhibition",Potency
COc1ccc(CC(=O)Nc2ccc3c(c2)CCC3)cc1OC,,"inconclusive: 12.6 µM [inhibitor, partial curve, poor fit]"
COc1ccc(C(C(=O)NC2CCCCC2)N(C(=O)CCl)c2cccc(Cl)c2)cc1 (centres undefined),,"inconclusive: 12.6 µM [inhibitor, partial curve, poor fit]"
O=C(CC(=O)NCc1ccccc1)NCc1ccccc1,inactive: -3.36%,
CN(CC(=O)Nc1ccc(Cl)c(Cl)c1)C(=O)C12CC3CC(CC(C3)C1)C2,,"inconclusive: 10 µM [inhibitor, partial curve, poor fit]"
Cc1ccc(Nc2c3c(nc4nncn24)CCC3)cc1C,inactive: 4.83% [at 46.1 µM],
Cc1ccc(C(=O)C[n+]2ccc3ccccc3c2)cc1,,"inconclusive: 35.5 µM [inhibitor, single point]"
C/C(=N\NC(=O)COc1ccc(C(C)(C)C)cc1)c1cc2ccccc2o1,,active: 10 µM
COc1cc(C2CC(=O)c3c([nH]c(C(=O)OCCOC(C)C)c3C)C2)cc(OC)c1OC (centres undefined),,"inconclusive: 32.6 µM [inhibitor, single point]"
CN(C)C[C@H](O)COc1cccc(OC[C@H](O)CN(C)C)c1,,"inconclusive: 20 µM [inhibitor, single point]"
O=[N+]([O-])c1cc(-c2ccc(C(=S)N3CCOCC3)o2)ccc1Cl,inactive: 3.66% [at 46.1 µM],
O=C(C[n+]1ccc(Cc2ccccc2)cc1)Nc1ccc([N+](=O)[O-])cc1Cl,inactive: 0.274%,
COC1/C=C/C=C(\C)Cc2cc(O)c(Cl)c(c2)N(C)C(=O)CC(OC(=O)C(C)C)C2(C)OC2C(C)C2CC1(O)NC(=O)O2 (centres undefined),inactive: 9.67%,
CN(CC(=O)NC1CCCCC1)S(=O)(=O)c1ccc(Cl)cc1,,"inconclusive: 17.8 µM [activator, single point]"
COc1ccc(-n2c(SCc3ccc([N+](=O)[O-])cc3)nnc2-c2ccccc2)cc1,,"inconclusive: 8.2 µM [inhibitor, partial curve, poor fit]"
Cc1cc(C(=O)N/N=C/c2ccc(C)s2)n[nH]1,inactive: -3.2% [at 46.1 µM],
O=C(N/N=C/c1ccccn1)c1cc(-c2ccc(Br)cc2)nc2ccccc12,,"inconclusive: 10 µM [inhibitor, partial curve, poor fit]"
O=C1C=CC(O)(c2cc(=O)c3c(O)cc(O)cc3o2)C=C1,,"inconclusive: 20.6 µM [inhibitor, single point]"
Cc1cc(C)c(NC(=S)N(CCN(C)C)Cc2cccs2)c(C)c1,,"inconclusive: 25.1 µM [inhibitor, partial curve, poor fit]"
CC(=NC(C)C)C1=C(O)CCC1=O,inactive: 17.8%,
Cc1ccc(N2CC(C(=O)Nc3ccc(N(C)C)cc3)CC2=O)cc1C (centres undefined),,"inconclusive: 3.66 µM [inhibitor, full curve]"
c1ccc(CSc2nnc(-c3c[nH]c4ccccc34)o2)cc1,inactive: -2.78%,
c1ccc(-c2nc(N3CCCCC3)nc3ccccc23)cc1,,"inconclusive: 11.2 µM [inhibitor, partial curve, poor fit]"
Nc1ccccc1C(=O)C=Cc1ccc2c(c1)OCO2,,"inconclusive: 5.31 µM [activator, single point]"

Compound,"activity change, negative = inhibition",Potency
COc1ccc(/C=C2\OC(=S)N(C)C2=O)cc1,,"inconclusive: 13 µM [inhibitor, partial curve, poor fit]"
Cc1c(C(=O)NCc2ccc3c(c2)OCO3)oc2ccc(Br)cc12,inactive: 0.0665%,
COc1cc(/C=C(\C#N)C(=O)N2CCOCC2)cc(Br)c1O,,"inconclusive: 23.1 µM [activator, single point]"
O=C1OCC(c2ccccc2)=C1c1ccccc1,inactive: 18.3% [at 46.1 µM],
CCOC(=O)C1CCCN(C(=O)c2ccc(NS(=O)(=O)c3ccc4[nH]c(=O)[nH]c4c3)cc2)C1 (centres undefined),inactive: 7.33% [at 46.1 µM],
NC1=NC(=O)/C(=C\c2ccc(O)c([N+](=O)[O-])c2)S1,inactive: 5.78%,
Cn1c(-c2ccc(CN3CCCCC3)o2)nc2ccccc21,inactive: -6.42%,
CNc1ccc(Br)cc(C(=O)/C=C/c2ccc3c(c2)OCO3)c1=O,inactive: -31.9%,
O=C(CSc1nc2c(oc3ccccc32)c(=O)n1-c1ccccc1F)Nc1ccccc1,,"inconclusive: 5.01 µM [inhibitor, full curve, poor fit]"
O=c1c2ccccc2nc2ccc(NCc3ccco3)nn12,inactive: -11%,
Cc1oc(C(C)(C)C)cc1C(=O)N1CCN(C(c2ccccc2)c2ccccc2)CC1,,"inconclusive: 15.8 µM [inhibitor, single point]"
O=C1NC(c2cccc(Cl)c2)Oc2ccccc21 (centres undefined),,"inconclusive: 0.316 µM [inhibitor, partial curve, poor fit]"
COc1ccc(C2Nc3ccccc3C(=O)N2c2ccccc2)cc1Cn1cc([N+](=O)[O-])cn1 (centres undefined),,"inconclusive: 8.91 µM [inhibitor, partial curve, poor fit]"
COc1cc(OC)cc(C(=O)NC(=S)Nc2ccc(N3CCCC3)cc2)c1,,"inconclusive: 5.62 µM [activator, single point]"
COc1ccc(-c2cc(C(=O)N(C)Cc3nc4ccccc4c(=O)[nH]3)c3ccccc3n2)cc1OC,,"inconclusive: 12.6 µM [inhibitor, partial curve, poor fit]"
CC(C)Cn1cnc2c(c1=N)C(c1ccccc1)C1=C(CC(C)(C)CC1=O)O2 (centres undefined),,"inconclusive: 7.08 µM [inhibitor, full curve, poor fit]"
COC(=O)CCCc1nc2ccccc2s1,inactive: 1.07%,
COc1cc(/C=N/NC2=NS(=O)(=O)c3ccccc32)ccc1OC(C)=O,,"inconclusive: 11.2 µM [inhibitor, single point]"
CC(C)CN1CCC(CNC(=O)CCc2nnc(Cc3c[nH]c4ccccc34)o2)CC1,,"inconclusive: 15.8 µM [inhibitor, single point]"
Cc1ccc(S(=O)(=O)/N=C2\C(=O)c3ccccc3C([O-])=C2n2cc[n+](CCC(C)C)c2)cc1,,"inconclusive: 6.51 µM [inhibitor, partial curve, poor fit]"
CCCn1ncc(C(=O)O)c1C,,"inconclusive: 14.1 µM [activator, partial curve, poor fit]"
CC(C)c1ccc(C(C(=O)NC2CCCC2)N(C(=O)c2csnn2)C2CC2)cc1 (centres undefined),,"inconclusive: 35.5 µM [inhibitor, single point]"
COc1ccc(Nc2ncnc3c2oc2ccccc23)cc1,,"inconclusive: 35.5 µM [inhibitor, single point]"
